# Measured values published in patent publication US20110081362A1, “TREATMENT OF CANCER” (THE BRIGHAM AND WOMEN'S HOSPITAL, INC., priority 2008, published 2011).
# At least one structure is not confirmed: it was looked up by name or label, or the drawing left a doubt.
# Tested on: DLD-1 Ras Mut cells vs DLD-1 Ras WT cells
# Assay: Competition assay, GFP-labeled Ras Mut vs Ras WT cells, FACS
# Assay type: cell-based, human
# Conditions: DLD-1 isogenic pair; drug present for 4-5 days
# Method: E. Schematic of the competition assay used to validate shRNAs from the primary screen. Ras Mut cells expressing GFP and Ras WT cells were mixed and co-infected with the same retroviral shRNA. The Mut to WT cell ratio at the end of the experiment is measured by FACS. The percentage of Ras Mut cells in the mixture infected with a candidate RSL shRNA was normalized against that of a control shRNA targeting firefly luciferase (FF) within the same experiment to generate a normalized fitness score for the Ras Mut cells. Variations of this assay are also used to test the effect of siRNAs and chemical inhibitors.
# Next, a competition assay was devised to test the reproducibility of candidate RSL shRNAs from the primary screen (Torrance et al., 2001; Smogorzewska et al., 2007). […] The relative ratio of Ras Mut versus WT cells at ˜7 days post shRNA infection was analyzed by FACS and compared to that of a mixed population infected with a negative control shRNA targeting luciferase (FIG. 8E). […]
# The competition assay used to test candidate genes from the screen was modified from a previous protocol (Torrance et al., 2001; Smogorzewska et al., 2007) and was carried out in 96-well plates in independent triplicates. […] For retroviral shRNA infection, cells were infected at an MOI of 1-5, selected for 3 days with puromycin and propagated for an additional 4-5 days before analyzed by FACS. […]
structure (smiles),measurement,value
O=c1cc(N2CCOCC2)oc2c(-c3ccccc3)cccc12 [LY294002],Fitness of Ras Mut cells relative to Ras WT cells (synthetic lethality with mutant Ras),At no concentration of these drugs was selective toxicity towards Ras Mut cells compared to Ras WT cells observed
